# Measured values published in patent US11452303B2, “Methods for feeding sows and for improving the health of young piglets” (PURINA ANIMAL NUTRITION LLC, priority 2003, dated 2022).
# Assay: Sow performance: feed intake
# Assay type: in vivo, swine
# Settings: for sow feed intake during the pre-weaning period compared to Control: Trial A and Trial B (26 and 52 grams sorbitol per day)
smiles,measurement,setting,value
OC[C@@H](O)[C@@H](O)[C@H](O)[C@@H](O)CO [sorbitol],sow feed intake during the pre-weaning period compared to Control,Parity ≥ 1,did not experience any significant increase in feed intake
same,sow feed intake during the pre-weaning period compared to Control,Parity ≥ 2,did not experience any significant increase in feed intake
same,Sow Feed Intake (mean daily),"Trial A, 26 grams sorbitol per day, Parity ≥ 1, Day 1 thru Day 7",9.77 pounds
same,Sow Feed Intake (mean daily),"Trial A, 26 grams sorbitol per day, Parity ≥ 1, Day 1 thru Day 14",11.84 pounds
same,Sow Feed Intake (mean daily),"Trial A, 26 grams sorbitol per day, Parity ≥ 1, Day 1 thru Day 18",12.45 pounds
same,Sow Feed Intake (mean daily),"Trial A, 26 grams sorbitol per day, Parity ≥ 1, Day 1 thru Weaning",12.91 pounds
same,Sow Feed Intake (mean daily),"Trial A, 26 grams sorbitol per day, Parity ≥ 1, Day 8 thru Day 14",13.92 pounds
same,Sow Feed Intake (mean daily),"Trial A, 26 grams sorbitol per day, Parity ≥ 2, Day 1 thru Day 7",10.67 pounds
same,Sow Feed Intake (mean daily),"Trial A, 26 grams sorbitol per day, Parity ≥ 2, Day 1 thru Day 14",12.77 pounds
same,Sow Feed Intake (mean daily),"Trial A, 26 grams sorbitol per day, Parity ≥ 2, Day 1 thru Day 18",13.31 pounds
same,Sow Feed Intake (mean daily),"Trial A, 26 grams sorbitol per day, Parity ≥ 2, Day 1 thru Weaning",13.70 pounds
same,Sow Feed Intake (mean daily),"Trial A, 26 grams sorbitol per day, Parity ≥ 2, Day 8 thru Day 14",14.87 pounds
same,Sow Feed Intake (mean daily),"Trial B, 52 grams sorbitol per day, Parity ≥ 1, Day 1 thru Day 7",8.65 pounds
same,Sow Feed Intake (mean daily),"Trial B, 52 grams sorbitol per day, Parity ≥ 1, Day 1 thru Day 14",10.87 pounds
same,Sow Feed Intake (mean daily),"Trial B, 52 grams sorbitol per day, Parity ≥ 1, Day 1 thru Day 18",11.68 pounds
same,Sow Feed Intake (mean daily),"Trial B, 52 grams sorbitol per day, Parity ≥ 1, Day 1 thru Weaning",12.22 pounds
same,Sow Feed Intake (mean daily),"Trial B, 52 grams sorbitol per day, Parity ≥ 1, Day 8 thru Day 14",13.11 pounds
same,feed intake decrease versus Control sow feed intake,"Trial B, 52 grams sorbitol per day, Parity ≥ 1, over each of the measurement periods of the pre-weaning period",about 0.70 pounds
same,Sow Feed Intake (mean daily),"Trial B, 52 grams sorbitol per day, Parity ≥ 2, Day 1 thru Day 7",10.00 pounds
same,Sow Feed Intake (mean daily),"Trial B, 52 grams sorbitol per day, Parity ≥ 2, Day 1 thru Day 14",12.37 pounds
same,Sow Feed Intake (mean daily),"Trial B, 52 grams sorbitol per day, Parity ≥ 2, Day 1 thru Day 18",13.07 pounds
same,Sow Feed Intake (mean daily),"Trial B, 52 grams sorbitol per day, Parity ≥ 2, Day 1 thru Weaning",13.55 pounds
same,Sow Feed Intake (mean daily),"Trial B, 52 grams sorbitol per day, Parity ≥ 2, Day 8 thru Day 14",14.74 pounds
